# Measurements: PubChem BioAssay AID1439 (NMMLSC, 2008)
# By UniProt entry, the sequences of proteins in these tests, tags left out.
# UniProt P09471, whole entry, looked up: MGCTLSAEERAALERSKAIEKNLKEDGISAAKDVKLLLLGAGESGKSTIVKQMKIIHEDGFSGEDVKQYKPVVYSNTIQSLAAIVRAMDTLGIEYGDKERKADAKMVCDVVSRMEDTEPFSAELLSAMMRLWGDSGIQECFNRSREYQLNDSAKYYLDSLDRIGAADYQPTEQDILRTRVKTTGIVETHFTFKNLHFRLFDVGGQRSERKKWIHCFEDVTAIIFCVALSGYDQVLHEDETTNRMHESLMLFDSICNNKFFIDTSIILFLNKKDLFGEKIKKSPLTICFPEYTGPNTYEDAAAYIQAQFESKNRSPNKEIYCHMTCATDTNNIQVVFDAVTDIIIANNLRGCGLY
# The campaign covered roughly 220,000 compounds. About 770 (0.35%) were called active. The shares of active, inactive and inconclusive entries below differ from those in the screen. Cut-off read from the data, not from the text of the source: active = binding response below about 49% or above about 150%; inconclusive = no clear call, values can overlap the other calls; inactive = in between.
# Molecular target: Guanine nucleotide-binding protein G(o) subunit alpha (Homo sapiens) (UniProt P09471)
# Assay: RGS7-Galphao binding modulators, primary screen, biochemical, multiplexed bead flow cytometry (AID 1439);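 note: fluorescent Galphao held in activated GDP-AlF4 state binding bead-coupled RGS7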
# Conditions: at 10 µM, actives lie on both sides
row,Compound,binding response (% of control)
1,S=c1[nH]nc(CCc2ccccc2)n1-c1ccc(Cl)cc1,inconclusive: 103%
2,CCOC(=O)c1cc2c(=O)n3cccc(C)c3nc2n(CCOC)c1=NC(C)=O,inconclusive: -385%
3,Cn1c(CCNC(=O)C2CCCCC2)nc2cc([N+](=O)[O-])ccc21,inconclusive: 110%
4,CC12CCC(C(=O)NNc3ccccc3)(C(=O)C1=O)C2(C)C (stereo not given),inconclusive: 140%
5,Cc1cc(NC(=O)Nc2ccc(Cl)c(Cl)c2)n(-c2ccccc2)n1,inconclusive: 131%
6,O=C(O)C12CC3CC(C1)CC(n1ncc(NCc4ccco4)c(Cl)c1=O)(C3)C2,inconclusive: 46.7%
7,CC(C)(C)C(=O)Nc1ccccc1C(=O)OCC(=O)c1ccc2c(c1)OCCO2,inactive: 98.7%
8,Cc1cc(C(=O)N/N=C/c2c(C)nn(-c3ccccc3)c2Cl)n[nH]1,inconclusive: 40.6%
9,CCOc1ccccc1N(C(=O)c1ccccc1Cl)C1=NC(C)(C)CS1,inconclusive: 122%
10,O=[N+]([O-])c1cccc(-c2ccc(/C=N/NC(=S)Nc3cccc(F)c3)o2)c1,inconclusive: 99.8%
11,COc1cc(/C=C/C(=O)OCC(=O)Nc2ccc([N+](=O)[O-])cc2)ccc1O,inconclusive: 116%
12,CC1(C)SC[C@H](C(=O)Nc2cccc(Cl)c2)N1C=O,inconclusive: 274%
13,CC(=O)c1ccc(NC(=O)/C(=C\c2cccs2)NC(=O)c2ccco2)cc1,inactive: 103%
14,Cc1cc(-c2c(C(=O)N3CCOCC3)c(C)nn2-c2cccc(C(F)(F)F)c2)no1,inconclusive: 107%
15,Cn1c(=O)c2c(ncn2Cc2nnc(N)s2)n(C)c1=O,inactive: 101%
16,O=C(COC(=O)c1cnccn1)NCCc1ccc(Cl)cc1Cl,inconclusive: 106%
17,CC1=NNC(=O)/C1=C\c1cn(-c2ccccc2)nc1-c1ccccc1,inconclusive: 64.9%
18,Cc1nn(-c2ccccc2)c(N2CCCC2)c1/C=N/NC(=O)c1ccccc1O,inactive: 107%
19,O=C1ON=C(c2ccccc2)/C1=C/c1cccnc1,inconclusive: 82.8%
20,O=C(NCc1ccccc1)C1=C[C@H](c2csc3ccccc23)C[C@H](OCc2ccc(CO)cc2)O1,inconclusive: 115%
21,O=C(Cc1nc2ccccc2[nH]c1=O)c1ccc(Cl)cc1,inconclusive: 1.74%
22,CCOC(=O)c1cc(C#N)c(N2CCOCC2)nc1-c1ccccc1,inconclusive: 120%
23,CC(=O)Nc1nc(C)c(C(C)(C)C)s1,inconclusive: 136%

# Reprinted at random: six records from the list
row,Compound,binding response (% of control)
18,Cc1nn(-c2ccccc2)c(N2CCCC2)c1/C=N/NC(=O)c1ccccc1O,inactive: 107%
6,O=C(O)C12CC3CC(C1)CC(n1ncc(NCc4ccco4)c(Cl)c1=O)(C3)C2,inconclusive: 46.7%
20,O=C(NCc1ccccc1)C1=C[C@H](c2csc3ccccc23)C[C@H](OCc2ccc(CO)cc2)O1,inconclusive: 115%
10,O=[N+]([O-])c1cccc(-c2ccc(/C=N/NC(=S)Nc3cccc(F)c3)o2)c1,inconclusive: 99.8%
17,CC1=NNC(=O)/C1=C\c1cn(-c2ccccc2)nc1-c1ccccc1,inconclusive: 64.9%
12,CC1(C)SC[C@H](C(=O)Nc2cccc(Cl)c2)N1C=O,inconclusive: 274%

# (continued)

row,Compound,binding response (% of control)
1,O=C(CSc1ccc(Br)c2cccc(Cl)c12)Nc1ccc(S(=O)(=O)Nc2nccs2)cc1,inconclusive: 80.8%
2,COc1ccc(NC(=O)COC(=O)[C@@H](NC(=O)c2c(F)cccc2F)C(C)C)cc1,active: 164% [activator]
3,Cc1[nH]c(C)c2c(=O)[nH]ncc12,inconclusive: 166%
4,Cc1onc(-c2ccccc2)c1CNC(=O)Nc1ccc(F)cc1F,inconclusive: 135%
5,CS(=O)(=O)c1ccc(C(=O)Nc2ccc(N3CCCC3)cc2)c(Cl)c1,inconclusive: 102%
6,CCOC(=O)C1(Cc2cccc(OC)c2)CCN(Cc2cccc3c2OCO3)CC1,inactive: 101%
7,Cc1ccc(NC(=O)C(=O)NCc2ccc(/C=N/NC(=O)c3c(C)nc4ccccn34)o2)cc1,inactive: 97.6%
8,CC(=O)Nc1ccc(NS(=O)(=O)c2cc(-c3n[nH]c(=O)c4ccccc34)ccc2C)cc1,inconclusive: 121%
9,Cc1c(-c2cccc(Cl)c2)nc2ccccc2c1C(=O)OC/C(O)=C(\C#N)c1nc2ccccc2[nH]1,inactive: 98.6%
10,Nc1cc(=O)n(Cc2ccccc2)c(=O)n1-c1ccc(Cl)cc1,inconclusive: 114%
11,CCN/N=C(\Cc1nc2ccccc2[nH]1)c1ccccc1,inconclusive: 113%
12,O=C(OC(C(=O)NCc1ccco1)c1ccc(Cl)cc1)c1cccs1 (stereo not given),inconclusive: 105%
13,CCOC(=O)c1ccc(-n2c(C)nc3ccc(Br)cc3c2=O)cc1,inconclusive: 132%
14,Cc1nc2ccc(NC(=O)c3cccnc3)cc2s1,inconclusive: 87.1%
15,COCCNC(=O)COC(=O)c1cc(-c2ccc(OC)cc2)nc2ccccc12,inactive: 101%
16,COc1cccc(/C=N/n2c(-c3ccco3)nc3ccccc3c2=O)c1OC,inactive: 95.8%
17,CCOCCCNCc1ccc(OCC(=O)N2CCOCC2)c(OC)c1,inconclusive: 68.3%
18,Cc1cc(O)c2/c(=N\N)c(-c3csc(C)n3)coc2c1,inconclusive: 82.1%
19,COc1ccccc1NNC(=O)c1cccnc1Oc1ccccc1,inconclusive: 36.5%
20,Nc1nc(SCC(=O)N2CCOCC2)[nH]c(=O)c1-c1ccccc1,inconclusive: 100%
21,CC1CCC(NC(=O)CCNC(=O)c2ccccc2)CC1 (stereo not given),inconclusive: 97.7%
22,Cc1nnc(NC(=O)CSc2nnc(Cc3ccccc3)n2Cc2ccccc2)s1,inactive: 98.3%
23,O=C(CNC(=O)c1cc(=O)[nH]c2ccccc12)Nc1ccc(F)c(F)c1,inconclusive: 113%

row,Compound,binding response (% of control)
1,CN(Cc1cccc(F)c1)CC(O)COCc1ccccc1Cl (stereo not given),inactive: 100%
2,Cc1noc(C)c1-c1nc(CSc2ccccc2)no1,inconclusive: 113%
3,N#Cc1ccccc1OCC(=O)NC(=O)NCc1ccco1,inconclusive: 78.7%
4,NNC(=S)Nc1c(F)cc(F)cc1Br,inconclusive: 163%
5,COC(=O)c1ccc(COc2ccc(NC(C)=O)cc2)o1,inconclusive: -23.4%
6,O=C(Nc1ccccc1Cl)c1csc(-c2cccnc2)n1,inconclusive: 96.1%
7,CCCn1c(S(=O)(=O)O)nc2ccccc21,inconclusive: 81.1%
8,O=C(NCc1ccc(Cl)cc1)c1csc(-c2cccnc2)n1,inconclusive: 87.4%
9,COc1cc(CCCN2C(=O)C(=O)NC[C@@H]2C(C)O)cc(OC)c1OC (stereo not given in full),inconclusive: 105%
10,COc1cc(NC(=O)c2cccnc2SC)cc(OC)c1OC,inconclusive: 87%
11,COc1ccc(C(=O)c2ccc(Br)cc2)cc1,inactive: 94.6%
12,NC1=NC(=O)/C(=C\c2cc([N+](=O)[O-])ccc2Cl)S1,inconclusive: 115%
13,COc1ccc(SC[C@H](CC(C)C)N2CCN(CCc3ccccc3)CCC2=O)cc1,inconclusive: 161%
14,CCCCN(C(C)=O)C1CC(=O)N(c2ccc(OCCC)cc2)C1=O (stereo not given),inconclusive: 128%
15,Nc1c(C(=O)NCc2ccco2)nnn1CC(=O)Nc1ccc2c(c1)OCO2,inconclusive: 95.2%
16,CSc1nc(C=Nc2ccccc2Cl)c(O)n1Cc1cccc(Cl)c1,inconclusive: 69.6%
17,Cc1ccccc1C(=O)NC(=S)Nc1ccccc1C(=O)O,inconclusive: 83.7%
18,Cc1ccc(SCC(=O)NCCCc2ccccc2)cc1,inconclusive: 115%
19,COc1cc2c(cc1OC)CN(C(=O)c1cc(=O)c3ccccc3o1)CC2,inactive: 97.6%
20,Cc1ccc(-n2cc(CN3CCN(C(=O)c4ncn[nH]4)CC3)c(-c3ccc(F)cc3)n2)cc1,inconclusive: 72.7%
21,Cc1onc(-c2ccccc2)c1C(=O)/C=C/N(C)C,inconclusive: 105%
22,CC(C)c1cc(C(=O)NCCc2ccccc2)no1,inactive: 88.4%
23,CC(C)CC(NS(=O)(=O)c1cccc(C(=O)O)c1)C(=O)O (stereo not given),inactive: 103%

row,Compound,binding response (% of control)
1,C=CCc1cc(/C=C2/NC(=O)N(CC(=O)OC)C2=O)cc(OC)c1O,inactive: 106%
2,CC(=O)Nc1ccc(Nc2nc(-c3ccccc3)nc3ccccc23)cc1,inactive: 95.6%
3,Cc1ccccc1C(=O)NNC(=O)CSc1nc2ccccc2c(=O)[nH]1,inconclusive: 90.5%
4,N#Cc1ccc(S(=O)(=O)N2CCN(c3ncccn3)CC2)cc1,inconclusive: 80.4%
5,Cc1c(NC(=S)NC(=O)C2CCCCC2)c(=O)n(-c2ccccc2)n1C,active: 14.8%
6,Cc1ccc(C(CCN(Cc2ccccc2)C(=O)c2ccco2)c2ccco2)cc1 (stereo not given),inactive: 95.8%
7,N#CC1=C(N)OC2=C(CCc3ccccc32)C1c1ccccc1 (stereo not given),inactive: 98.2%
8,Cc1cc(C)nc(SCc2cnc(C)nc2N)n1,inactive: 102%
9,CCCC(=O)N(C1CC(C)C(C#N)(C#N)C1(C#N)C#N)N(C)C (stereo not given),inconclusive: 336%
10,COc1ccc(NC(=S)N2CCCN(Cc3cc(C)ccc3C)C2)cc1,inactive: 82.7%
11,COc1ccc(-c2nc(C#N)c(NCc3ccco3)o2)cc1,inconclusive: 108%
12,CCc1ccc(NC(=S)NC(=O)c2c(-c3ccccc3Cl)noc2C)cc1,inconclusive: 109%
13,CC(C)Cc1cc(C(=O)N2CCCC(CCC(=O)N(C)CCc3ccccn3)C2)no1 (stereo not given),inactive: 100%
14,O=S(=O)(c1ccc2c(c1)CCCN2)N1CCCC2CCCCC21 (stereo not given),inconclusive: 138%
15,CCOc1ccc(N2CC(C(=O)Nc3ccc(OC)c(S(=O)(=O)N4CCCCC4)c3)CC2=O)cc1 (stereo not given),inconclusive: 83.2%
16,Cc1noc(C)c1S(=O)(=O)NC1CCN(Cc2ccccc2)CC1,inactive: 106%
17,N#C/C(=N\Nc1cccc(C(F)(F)F)c1)C(=O)c1csc(-c2cccnc2)n1,inconclusive: 100%
18,C=C(C)Cn1c(C2CC(=O)N(c3ccccc3F)C2)nc2ccccc21 (stereo not given),inactive: 92.1%
19,CC(C)(C)c1ccc(OCC(=O)N2CCCCCC2)c(Br)c1,inconclusive: 101%
20,C/C=C/C=C/C(=O)N1CC[C@]23c4ccccc4N[C@H]4N(C)c5cccc6c5[C@]42CCN([C@H]6C2OC2(C)C)[C@H]13 (stereo not given in full),inconclusive: 83.8%
21,CC1=C(CO)C(=O)OC([C@@H](C)C2CC[C@H]3C4C[C@H]5O[C@]56[C@@H](O)C=CC(=O)[C@]6(C)C4CC[C@]23C)C1 (stereo not given in full),inconclusive: 41.9%
